Test results reported in article PMC4869360, “An allosteric role for receptor activity-modifying proteins in defining GPCR pharmacology” (Cell Discovery, 2016).
Numbering of substitutions follows the chain as printed. Read-outs that look alike come from different tables or passages of the source.

Sequences of proteins named here, by UniProt entry; tags and fusion partners are left off. A change or cut given only in a name is not applied to a line headed by its entry. Residues count along the entry.
UniProt O60894, 27-148: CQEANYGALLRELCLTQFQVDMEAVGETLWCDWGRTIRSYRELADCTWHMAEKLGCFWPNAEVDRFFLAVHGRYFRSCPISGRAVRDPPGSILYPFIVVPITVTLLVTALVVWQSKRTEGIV

What was measured:
[1] = target: CT(a) receptor, Y56A mutant (Homo sapiens, UniProt P30988, Y56A); experiment: cell-based
Text: (§1) This is the insert-negative form of the receptor and is referred to as hCT(a), to comply with International Union of Pharmacology guidelines. Myc tagged RAMP1 and untagged RAMP3 constructs were used for AMY receptor experiments.
(§2) Primers were purchased from Integrated DNA Technologies Ltd (Coralville, IA, USA). Kapa HiFi readymix (Kapa Biosystems, Wilmington, MA, USA) or Primestar HS enzymes (TaKaRa Bio, Kyoto, Japan) were substituted for Pfu polymerase.
(§3) After stimulation the reaction was stopped by removing media and adding 50 μl per well of ice-cold absolute ethanol. Plates were stored at −30 °C for up to 4 days before the measurement of cAMP was performed.

[2] = target: CT(a) receptor, M48A mutant (Homo sapiens, UniProt P30988, M48A); experiment: cell-based
Text: as §1, §2, §3

[3] = target: CT(a) receptor, Q52A mutant (Homo sapiens, UniProt P30988, Q52A); experiment: cell-based
Text: as §1, §2, §3

[4] = target: CT(a) receptor, N124A mutant (Homo sapiens, UniProt P30988, N124A); experiment: cell-based
Text: as §1, §2, §3

[5] = target: AMY1(a) receptor (CT(a)/RAMP1), CTR N124A mutant (Homo sapiens, UniProt O60894+P30988, N124A); experiment: cAMP assay, N124A AMY1(a); format: cell-based; conditions: Cos-7, mean±s.e.m.
Text: as §1, §2, §3

[6] = target: AMY1(a) receptor (CT(a)/RAMP1), WT (Homo sapiens, UniProt O60894+P30988); experiment: cAMP assay, WT AMY1(a) receptor; format: cell-based; conditions: Cos-7, mean±s.e.m.
[7] = target: T1, CT(a) receptor, R126A mutant (Homo sapiens, UniProt P30988, R126A); experiment: cAMP assay, R126A CT(a); format: cell-based
T1 sequence (P30988 25-474 R126A): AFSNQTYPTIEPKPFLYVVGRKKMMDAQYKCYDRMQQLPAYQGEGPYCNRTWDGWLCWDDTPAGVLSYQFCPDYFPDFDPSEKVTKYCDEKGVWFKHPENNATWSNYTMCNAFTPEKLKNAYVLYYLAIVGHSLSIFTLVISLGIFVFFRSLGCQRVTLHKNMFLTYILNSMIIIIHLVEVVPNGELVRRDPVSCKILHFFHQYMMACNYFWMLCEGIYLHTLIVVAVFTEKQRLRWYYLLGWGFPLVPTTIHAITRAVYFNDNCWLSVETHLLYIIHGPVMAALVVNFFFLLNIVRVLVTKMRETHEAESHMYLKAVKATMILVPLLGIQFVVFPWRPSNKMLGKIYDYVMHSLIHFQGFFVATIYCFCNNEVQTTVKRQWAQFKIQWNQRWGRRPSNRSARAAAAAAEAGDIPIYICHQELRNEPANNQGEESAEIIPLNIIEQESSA
Text: as §1, §2, §3

[8] = target: T2, CT(a) receptor, Y131A mutant (Homo sapiens, UniProt P30988, Y131A); experiment: cAMP assay, Y131A CT(a); format: cell-based
T2 sequence (P30988 25-474 Y131A): T1 sequence (P30988 25-474 R126A) with A102R, Y107A
Text: as §1, §2, §3

EC50 [1]: 2.19 nM
EC50 [2]: 14.8 nM
EC50 [3]: 6.76 nM
EC50 [4]: 5.75 nM
pEC50 mutant [5]: 9.58±0.19
EC50 ([6]; pEC50 WT, paired with N124A): 0.182 nM
EC50 ([6]; paired with D101A, read-out: pEC50 WT (converted)): 0.0891 nM
EC50 ([6]; paired with F99A, read-out: pEC50 WT (converted)): 0.126 nM
EC50 ([6]; paired with F102A, read-out: pEC50 WT (converted)): 0.214 nM
EC50 ([6]; paired with G44A, read-out: pEC50 WT (converted)): 0.38 nM
EC50 ([6]; paired with H121A, read-out: pEC50 WT (converted)): 0.186 nM
EC50 ([6]; paired with M48A, read-out: pEC50 WT (converted)): 0.309 nM
EC50 ([6]; paired with Q52A, read-out: pEC50 WT (converted)): 0.219 nM
EC50 ([6]; paired with R45A, read-out: pEC50 WT (converted)): 0.447 nM
EC50 ([6]; paired with R126A, read-out: pEC50 WT (converted)): 0.447 nM
EC50 ([6]; paired with RAMP1 Y66A, read-out: pEC50 WT (converted)): 0.214 nM
EC50 ([6]; paired with W79A, read-out: pEC50 WT (converted)): 0.145 nM
EC50 ([6]; paired with W128A, read-out: pEC50 WT (converted)): 0.126 nM
EC50 ([6]; paired with Y53A, read-out: pEC50 WT (converted)): 0.302 nM
EC50 ([6]; paired with Y56A, read-out: pEC50 WT (converted)): 0.166 nM
EC50 ([6]; paired with Y131A, read-out: pEC50 WT (converted)): 0.182 nM
EC50 [7]: 7.59 nM
EC50 [8]: 30.9 nM
SMILES: CC(C)C[C@H](NC(=O)[C@H](CC(N)=O)NC(=O)[C@H](CC(N)=O)NC(=O)[C@H](CO)NC(=O)[C@H](CO)NC(=O)[C@H](CCCNC(=N)N)NC(=O)[C@@H](NC(=O)[C@H](CC(C)C)NC(=O)[C@H](Cc1ccccc1)NC(=O)[C@H](CC(N)=O)NC(=O)[C@H](C)NC(=O)[C@H](CC(C)C)NC(=O)[C@H](CCCNC(=N)N)NC(=O)[C@H](CCC(N)=O)NC(=O)[C@@H](NC(=O)[C@H](C)NC(=O)[C@@H]1CSSC[C@H](NC(=O)[C@@H](N)CCCCN)C(=O)N[C@@H](CC(N)=O)C(=O)N[C@@H]([C@@H](C)O)C(=O)N[C@@H](C)C(=O)N[C@@H]([C@@H](C)O)C(=O)N1)[C@@H](C)O)C(C)C)C(=O)NCC(=O)N1CCC[C@H]1C(=O)N[C@H](C(=O)N[C@@H](CC(C)C)C(=O)N1CCC[C@H]1C(=O)N1CCC[C@H]1C(=O)N[C@H](C(=O)N[C@@H](CC(N)=O)C(=O)N[C@H](C(=O)NCC(=O)N[C@@H](CO)C(=O)N[C@@H](CC(N)=O)C(=O)N[C@H](C(=O)N[C@@H](Cc1ccc(O)cc1)C(N)=O)[C@@H](C)O)C(C)C)[C@@H](C)O)C(C)C [rAmy, rat amylin]
